Measurements reported in PubChem BioAssay AID686937 (Drosophila RNAi Screening Center, 2013).
The screen tested about 23,000 reagents; this is a random part of those with a known target gene and a result. 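Reduced-secretion tags in replicate 1 do not always agree with the z-scores; no criterion for assigning the tags was given.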 Reagents against one gene are numbered here. Names joined by + are all predicted targets of the reagent. No sequences are given here. The record does not give: the amount of reagent.

Aim: 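Knock-downs that reduce output of a secreted reporter enzyme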 (primary screen)
System: Drosophila S2 cells expressing secreted horseradish peroxidase
Reagent: long dsRNA against Drosophila genes
Timing: about 5.5 days (5 days dsRNA, then 12 h reporter induction)
Challenge: reporter expression induced after 5 days of dsRNA, read 12 h later; inducer not stated
Measured: 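After 5 days of dsRNA and 12 h of reporter induction, medium peroxidase read by chemiluminescence and scored as per-plate z-score; higher values mean more reporter released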
Direction: z-score: higher = more reporter secreted into medium

The opening 4 entries as a preview:
gene | reagent no. | z-score, replicate 1 | z-score, replicate 2 | z-score, replicate 3 | z-score, replicate 4 | phenotype, replicate 1
CG15422 | 1 | 0.1 | 0.25 | – | – | –
CG13437 | 1 | 0.47 | 0.51 | – | – | –
Ance | 1 | 0.39 | 0.14 | – | – | –
cni | 1 | 0.01 | 0.34 | – | – | –

The list itself, repeating the preview:
gene | reagent no. | z-score, replicate 1 | z-score, replicate 2 | z-score, replicate 3 | z-score, replicate 4 | phenotype, replicate 1
CG15422 | 1 | 0.1 | 0.25 | – | – | –
CG13437 | 1 | 0.47 | 0.51 | – | – | –
Ance | 1 | 0.39 | 0.14 | – | – | –
cni | 1 | 0.01 | 0.34 | – | – | –
Mpcp2 | 1 | -0.06 | -0.01 | – | – | –
cag | 1 | 0.3 | 0.34 | – | – | –
CG30371 | 1 | 0.45 | 0.3 | – | – | –
CG16957 | 1 | 0.49 | 0.44 | – | – | –
CG30109 | 1 | 0.34 | 0.21 | – | – | –
CG30411 | 1 | 0.15 | – | – | – | –
ago | 1 | -0.01 | 0.49 | – | – | –
Rcd-1 | 1 | 0.37 | 0.24 | – | – | –
CG15549 | 1 | 0.15 | 0.28 | – | – | –
CG12535 | 1 | 0.1 | -0.24 | – | – | –
Cyp6a9 | 1 | 0.63 | 0.11 | – | – | –
CG33340 | 1 | 0.44 | 0.47 | – | – | –
CG3857 | 1 | 0.38 | 0.54 | – | – | –
RNASEK | 1 | 2.01 | 0.3 | – | – | –
CG7653 | 1 | 0.22 | 0.04 | – | – | –
Plekhm1 | 1 | -0.34 | -0.15 | – | – | –
CG34244 | 1 | 0.45 | 0.46 | – | – | –
CG15343 | 1 | 0.37 | 0.65 | – | – | –
CG43666 + CG43667 + CG43668 | 1 | -1 | 0.34 | – | – | –
CG43666 + CG43667 + CG43668 | 2 | 0.13 | 0.38 | – | – | –
CG11380 | 1 | -0.24 | -0.24 | – | – | –
CG8677 | 1 | 0.37 | 0.47 | – | – | –
mRpL42 | 1 | 0.18 | -0.06 | – | – | –
Elp6 | 1 | 0.07 | -0.44 | – | – | –
CG33281 | 1 | 0.38 | 0.38 | – | – | –
Desi | 1 | 0.21 | 0.09 | – | – | –
CG13133 | 1 | -0.17 | 0.57 | – | – | –
RpL31 | 1 | -3.48 | -4.09 | – | – | reduced secretion
CG33339 | 1 | -0.27 | -0.26 | – | – | –
swaPsi | 1 | -0.67 | -0.12 | – | – | –
CG6834 | 1 | 0.14 | 0.15 | – | – | –
yellow-e2 | 1 | 0.5 | -0.26 | – | – | –
Mf | 1 | 0.21 | 0.41 | – | – | –
Cpr62Ba | 1 | 0.17 | 0.16 | – | – | –
Jupiter | 1 | -0.02 | 0.04 | – | – | –
Jupiter | 2 | 0.14 | 0.44 | – | – | –
Jupiter | 3 | 0.24 | 0.06 | – | – | –
Tasp1 | 1 | 0.34 | 0.3 | – | – | –
CG7271 | 1 | -0.28 | 0.3 | – | – | –
l(3)07882 | 1 | 0.26 | 0.2 | – | – | –
C1GalTA | 1 | 0.56 | 0.3 | – | – | –
Dpy-30L2 | 1 | 0.54 | 0.41 | – | – | –
Hsc70-5 | 1 | -0.52 | -1.07 | – | – | –
ac | 1 | -0.08 | 0.16 | – | – | –
shakB | 1 | 0.22 | 0.29 | – | – | –
shakB | 2 | 0.06 | -0.2 | 0.21 | 0.34 | –
shakB | 3 | 0.67 | 0.53 | – | – | –
shakB | 4 | -0.23 | 0.27 | – | – | –
shakB | 5 | 0.01 | 1.45 | – | – | –
shakB | 6 | -0.09 | -0.43 | – | – | –
Flo1 | 1 | 0.41 | 0.38 | – | – | –
CG16986 | 1 | 0.49 | 0.26 | – | – | –
